# Laboratory results as given in the supplement of paper PMC6411743.
# Protein sequences, listed by entry. Tags and fused reporters are not part of them. Lines headed by an entry give the natural chain unless they say otherwise; changes in a name come on top.
# UniProt Q14653: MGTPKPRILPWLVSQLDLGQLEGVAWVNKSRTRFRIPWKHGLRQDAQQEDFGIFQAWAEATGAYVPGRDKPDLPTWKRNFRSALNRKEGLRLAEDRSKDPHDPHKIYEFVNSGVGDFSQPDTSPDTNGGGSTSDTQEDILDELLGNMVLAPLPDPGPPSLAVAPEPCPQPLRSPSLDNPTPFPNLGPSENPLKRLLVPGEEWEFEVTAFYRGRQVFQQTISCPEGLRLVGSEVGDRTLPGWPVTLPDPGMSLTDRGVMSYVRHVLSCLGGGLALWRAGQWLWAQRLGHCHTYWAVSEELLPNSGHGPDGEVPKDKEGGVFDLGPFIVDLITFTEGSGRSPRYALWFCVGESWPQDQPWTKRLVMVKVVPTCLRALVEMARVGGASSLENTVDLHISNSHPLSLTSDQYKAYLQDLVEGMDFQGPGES
# UniProt O43615: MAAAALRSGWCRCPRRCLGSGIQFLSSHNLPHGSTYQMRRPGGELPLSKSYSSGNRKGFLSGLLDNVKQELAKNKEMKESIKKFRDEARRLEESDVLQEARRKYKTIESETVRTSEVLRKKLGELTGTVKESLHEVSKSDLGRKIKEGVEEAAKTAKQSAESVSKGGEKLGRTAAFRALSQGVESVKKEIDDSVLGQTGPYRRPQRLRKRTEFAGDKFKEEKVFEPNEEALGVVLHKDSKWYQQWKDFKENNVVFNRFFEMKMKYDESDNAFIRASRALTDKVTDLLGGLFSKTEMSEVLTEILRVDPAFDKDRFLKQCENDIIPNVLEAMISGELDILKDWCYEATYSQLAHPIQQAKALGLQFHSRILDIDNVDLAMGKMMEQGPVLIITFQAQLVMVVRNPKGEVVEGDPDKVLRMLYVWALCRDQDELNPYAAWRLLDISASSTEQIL
# UniProt P35269, whole entry: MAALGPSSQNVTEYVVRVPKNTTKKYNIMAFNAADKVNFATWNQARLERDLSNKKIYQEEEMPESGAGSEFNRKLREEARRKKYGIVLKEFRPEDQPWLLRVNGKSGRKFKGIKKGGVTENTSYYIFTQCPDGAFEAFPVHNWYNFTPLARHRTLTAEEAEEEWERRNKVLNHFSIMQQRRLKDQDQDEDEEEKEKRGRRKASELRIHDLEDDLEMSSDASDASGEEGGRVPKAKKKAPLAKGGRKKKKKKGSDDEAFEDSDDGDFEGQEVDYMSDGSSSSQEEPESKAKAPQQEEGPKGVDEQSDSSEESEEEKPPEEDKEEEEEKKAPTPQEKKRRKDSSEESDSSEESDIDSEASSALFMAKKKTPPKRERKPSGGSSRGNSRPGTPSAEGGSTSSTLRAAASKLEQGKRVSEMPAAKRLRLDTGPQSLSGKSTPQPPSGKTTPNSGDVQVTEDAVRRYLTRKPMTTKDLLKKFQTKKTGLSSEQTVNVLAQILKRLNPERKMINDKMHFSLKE
# UniProt O43752: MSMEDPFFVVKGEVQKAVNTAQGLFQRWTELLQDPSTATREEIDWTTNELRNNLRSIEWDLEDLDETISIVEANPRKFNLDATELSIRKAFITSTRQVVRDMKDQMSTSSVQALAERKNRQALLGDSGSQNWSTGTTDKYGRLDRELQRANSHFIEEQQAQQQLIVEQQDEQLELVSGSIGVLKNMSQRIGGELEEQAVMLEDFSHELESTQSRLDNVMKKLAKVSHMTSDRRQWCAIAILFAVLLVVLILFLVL
# UniProt O14974: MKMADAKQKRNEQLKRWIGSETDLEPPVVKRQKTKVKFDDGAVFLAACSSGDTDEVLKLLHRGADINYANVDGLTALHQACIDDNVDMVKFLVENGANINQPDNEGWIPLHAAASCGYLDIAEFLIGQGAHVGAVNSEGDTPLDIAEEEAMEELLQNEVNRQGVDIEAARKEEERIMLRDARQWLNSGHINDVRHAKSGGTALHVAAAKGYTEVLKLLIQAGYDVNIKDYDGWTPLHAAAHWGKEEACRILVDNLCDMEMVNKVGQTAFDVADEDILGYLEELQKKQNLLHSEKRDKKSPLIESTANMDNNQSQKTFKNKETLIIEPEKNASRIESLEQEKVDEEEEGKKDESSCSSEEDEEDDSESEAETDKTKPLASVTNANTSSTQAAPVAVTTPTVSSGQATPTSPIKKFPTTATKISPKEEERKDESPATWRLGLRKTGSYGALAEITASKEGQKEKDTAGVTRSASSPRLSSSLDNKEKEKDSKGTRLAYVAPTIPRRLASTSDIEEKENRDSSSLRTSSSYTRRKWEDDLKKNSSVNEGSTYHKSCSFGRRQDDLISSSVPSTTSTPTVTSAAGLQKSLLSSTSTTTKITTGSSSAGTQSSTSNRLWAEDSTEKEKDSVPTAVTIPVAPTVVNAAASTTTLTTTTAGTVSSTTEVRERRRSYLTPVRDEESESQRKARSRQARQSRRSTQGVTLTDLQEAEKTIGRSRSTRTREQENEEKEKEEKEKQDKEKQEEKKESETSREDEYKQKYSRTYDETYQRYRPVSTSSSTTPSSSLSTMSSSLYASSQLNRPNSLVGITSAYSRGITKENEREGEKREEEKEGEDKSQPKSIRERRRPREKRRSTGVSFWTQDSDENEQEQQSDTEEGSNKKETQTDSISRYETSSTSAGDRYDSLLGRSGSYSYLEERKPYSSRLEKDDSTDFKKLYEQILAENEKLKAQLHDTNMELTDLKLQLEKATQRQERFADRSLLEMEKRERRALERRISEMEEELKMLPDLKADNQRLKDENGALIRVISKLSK
# UniProt Q9H6Z4: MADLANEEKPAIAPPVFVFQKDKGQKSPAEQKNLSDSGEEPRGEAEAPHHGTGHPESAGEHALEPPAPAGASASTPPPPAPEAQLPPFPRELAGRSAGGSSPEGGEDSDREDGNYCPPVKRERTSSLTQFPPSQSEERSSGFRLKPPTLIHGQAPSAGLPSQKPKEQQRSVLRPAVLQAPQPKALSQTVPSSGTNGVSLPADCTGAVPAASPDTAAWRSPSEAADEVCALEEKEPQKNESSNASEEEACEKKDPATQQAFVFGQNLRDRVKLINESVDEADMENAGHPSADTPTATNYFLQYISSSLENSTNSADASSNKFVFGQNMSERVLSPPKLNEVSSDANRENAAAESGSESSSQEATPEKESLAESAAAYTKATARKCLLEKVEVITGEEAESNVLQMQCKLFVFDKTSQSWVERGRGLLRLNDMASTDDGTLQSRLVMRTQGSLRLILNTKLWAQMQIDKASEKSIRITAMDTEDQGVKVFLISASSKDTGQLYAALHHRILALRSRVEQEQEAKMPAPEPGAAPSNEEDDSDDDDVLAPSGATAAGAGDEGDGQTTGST
# UniProt O14965: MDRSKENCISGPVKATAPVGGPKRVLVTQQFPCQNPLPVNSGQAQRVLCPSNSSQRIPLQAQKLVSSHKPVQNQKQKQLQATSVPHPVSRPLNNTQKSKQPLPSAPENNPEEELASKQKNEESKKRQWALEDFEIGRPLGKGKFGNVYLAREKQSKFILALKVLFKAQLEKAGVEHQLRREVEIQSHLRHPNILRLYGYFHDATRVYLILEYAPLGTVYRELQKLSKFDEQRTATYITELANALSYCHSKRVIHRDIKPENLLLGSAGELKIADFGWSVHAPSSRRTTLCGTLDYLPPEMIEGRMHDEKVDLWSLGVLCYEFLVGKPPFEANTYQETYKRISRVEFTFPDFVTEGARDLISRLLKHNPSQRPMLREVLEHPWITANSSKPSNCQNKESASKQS
# UniProt O00629, whole entry: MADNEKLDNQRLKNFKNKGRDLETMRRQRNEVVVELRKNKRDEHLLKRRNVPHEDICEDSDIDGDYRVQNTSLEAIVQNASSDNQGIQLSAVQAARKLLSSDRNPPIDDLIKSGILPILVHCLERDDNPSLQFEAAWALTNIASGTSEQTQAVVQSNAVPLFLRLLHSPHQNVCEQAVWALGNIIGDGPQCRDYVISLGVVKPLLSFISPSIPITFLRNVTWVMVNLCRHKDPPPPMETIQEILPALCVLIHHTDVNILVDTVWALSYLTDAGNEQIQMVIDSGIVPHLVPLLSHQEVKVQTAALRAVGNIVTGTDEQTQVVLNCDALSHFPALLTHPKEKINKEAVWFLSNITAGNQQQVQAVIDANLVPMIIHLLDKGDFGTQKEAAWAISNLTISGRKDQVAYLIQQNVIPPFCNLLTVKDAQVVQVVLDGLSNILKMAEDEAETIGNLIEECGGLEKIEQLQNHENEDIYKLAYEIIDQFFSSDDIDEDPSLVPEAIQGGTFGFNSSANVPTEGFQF
# UniProt O14841: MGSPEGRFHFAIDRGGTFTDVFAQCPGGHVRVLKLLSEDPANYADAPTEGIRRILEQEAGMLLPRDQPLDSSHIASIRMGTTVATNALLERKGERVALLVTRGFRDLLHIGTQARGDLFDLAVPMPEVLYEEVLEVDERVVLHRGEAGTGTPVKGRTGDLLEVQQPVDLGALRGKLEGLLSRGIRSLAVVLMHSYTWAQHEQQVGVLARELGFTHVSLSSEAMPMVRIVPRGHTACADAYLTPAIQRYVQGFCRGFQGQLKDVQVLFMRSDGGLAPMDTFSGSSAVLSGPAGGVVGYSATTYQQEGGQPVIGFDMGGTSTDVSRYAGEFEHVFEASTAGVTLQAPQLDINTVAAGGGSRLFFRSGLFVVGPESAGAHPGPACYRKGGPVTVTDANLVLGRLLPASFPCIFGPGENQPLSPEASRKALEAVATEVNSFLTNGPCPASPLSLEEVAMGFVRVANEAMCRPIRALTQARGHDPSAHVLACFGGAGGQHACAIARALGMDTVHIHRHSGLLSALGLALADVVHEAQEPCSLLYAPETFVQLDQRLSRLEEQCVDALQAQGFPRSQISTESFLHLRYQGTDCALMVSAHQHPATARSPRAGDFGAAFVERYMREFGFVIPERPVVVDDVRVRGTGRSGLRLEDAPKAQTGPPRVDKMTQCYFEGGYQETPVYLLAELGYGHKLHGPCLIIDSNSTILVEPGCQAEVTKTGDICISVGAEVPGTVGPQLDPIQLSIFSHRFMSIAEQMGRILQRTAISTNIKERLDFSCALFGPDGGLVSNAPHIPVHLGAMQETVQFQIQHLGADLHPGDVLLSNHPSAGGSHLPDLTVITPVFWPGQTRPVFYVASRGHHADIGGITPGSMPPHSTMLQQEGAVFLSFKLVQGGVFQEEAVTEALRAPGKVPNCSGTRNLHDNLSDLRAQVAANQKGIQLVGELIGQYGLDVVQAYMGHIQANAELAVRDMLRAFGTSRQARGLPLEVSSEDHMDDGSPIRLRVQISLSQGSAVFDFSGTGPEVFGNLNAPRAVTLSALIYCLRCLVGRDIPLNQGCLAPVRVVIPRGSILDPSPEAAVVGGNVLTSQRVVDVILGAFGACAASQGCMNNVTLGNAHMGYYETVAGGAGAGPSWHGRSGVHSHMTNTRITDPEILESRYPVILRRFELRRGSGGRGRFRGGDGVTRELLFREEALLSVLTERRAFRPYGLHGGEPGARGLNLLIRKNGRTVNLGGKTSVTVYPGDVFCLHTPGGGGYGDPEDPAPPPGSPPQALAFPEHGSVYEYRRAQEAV
# UniProt O00767: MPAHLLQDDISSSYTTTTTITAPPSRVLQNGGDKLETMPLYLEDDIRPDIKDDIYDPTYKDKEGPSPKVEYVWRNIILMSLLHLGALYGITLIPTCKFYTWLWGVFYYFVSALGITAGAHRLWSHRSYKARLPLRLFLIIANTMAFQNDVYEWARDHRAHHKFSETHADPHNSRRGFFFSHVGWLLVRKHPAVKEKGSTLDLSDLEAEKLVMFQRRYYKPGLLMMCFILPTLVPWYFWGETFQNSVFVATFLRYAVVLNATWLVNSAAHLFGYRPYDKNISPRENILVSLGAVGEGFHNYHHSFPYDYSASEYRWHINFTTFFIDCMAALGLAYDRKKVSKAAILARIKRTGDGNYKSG
# UniProt O15270: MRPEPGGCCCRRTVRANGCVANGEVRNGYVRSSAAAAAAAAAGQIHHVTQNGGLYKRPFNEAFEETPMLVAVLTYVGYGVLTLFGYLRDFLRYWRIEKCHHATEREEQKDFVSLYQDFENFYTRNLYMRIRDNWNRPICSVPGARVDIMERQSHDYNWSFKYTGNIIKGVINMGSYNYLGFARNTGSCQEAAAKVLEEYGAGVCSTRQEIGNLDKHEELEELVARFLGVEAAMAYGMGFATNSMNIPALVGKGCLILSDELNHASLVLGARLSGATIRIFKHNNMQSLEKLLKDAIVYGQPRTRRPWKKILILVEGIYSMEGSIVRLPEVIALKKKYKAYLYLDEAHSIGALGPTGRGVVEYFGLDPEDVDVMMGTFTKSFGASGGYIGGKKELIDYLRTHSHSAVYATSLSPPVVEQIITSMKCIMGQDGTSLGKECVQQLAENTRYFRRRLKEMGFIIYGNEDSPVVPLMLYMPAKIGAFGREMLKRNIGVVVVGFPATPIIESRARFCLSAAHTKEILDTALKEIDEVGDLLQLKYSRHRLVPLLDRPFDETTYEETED
# UniProt O43399: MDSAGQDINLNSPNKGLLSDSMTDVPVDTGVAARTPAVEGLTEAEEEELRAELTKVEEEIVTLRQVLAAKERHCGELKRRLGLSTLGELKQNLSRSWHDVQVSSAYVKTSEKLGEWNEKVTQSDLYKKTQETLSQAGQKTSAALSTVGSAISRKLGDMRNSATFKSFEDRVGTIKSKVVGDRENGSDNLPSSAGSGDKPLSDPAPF
# ± gives the standard deviation of the averaged measurements. Only a part is listed here, and it is no random draw. Small differences around the control level are noise.
# Compound: Nc1ncnc2c1ncn2[C@@H]1O[C@H](COP(=O)(O)OP(=O)(O)NP(=O)(O)O)[C@@H](O)[C@H]1O [adenylyl imidodiphosphate]
# Test: NP40-soluble protein abundance relative to vehicle (solubility fold change) (ratio); higher = more soluble protein in presence of AMP-PNP
# Conditions: concentration: 0.1mM
# In short: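 Across three independent experiments, values are fold changes against the detergent-processed vehicle for each replicate, based on vsn-normalised intensities. The samples were Jurkat crude lysate treated with eight concentrations (0.1 to 10 mM) for 10 min at room temperature and then 3 min at 37 °C. Lysate was solubilised with 0.8% NP40 and benzonase, ultracentrifuged, and the supernatant analysed by TMT-labelled LC-MS/MS.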
row,Target,NP40-soluble protein abundance
1,NDUFAB1 (UniProt O14561),0.978 ± 0.057
2,UniProt O15085 and related entries,1.04 ± 0.043
3,M0QYT9 and related entries (UniProt Q14653),1.04 ± 0.023
4,UniProt O00592 and related entries,0.966 ± 0.027
5,K7EK00 and related entries (UniProt Q96ND0),0.966 ± 0.038
6,M0R2S1 and related entries (UniProt P62987),0.972 ± 0.091
7,M0QYZ2 and related entries (UniProt P53680),1.04 ± 0.052
8,TIMM44 (UniProt O43615),0.9757 ± 0.0032
9,NDUFS4 (UniProt O43181),0.978 ± 0.068
10,UniProt O43439-5,0.998 ± 0.025
11,TAF4 (UniProt O00268),1 ± 0.078
12,K7ER90 and related entries (UniProt O75821),1.02 ± 0.061
13,UniProt O43318-2|O43318,0.984 ± 0.032
14,M0R0Z3 and related entries (UniProt P35269),0.974 ± 0.024
15,UniProt O00139 and related entries,1.09 ± 0.037
16,UQCRQ (UniProt O14949),0.981 ± 0.073
17,UniProt O15400 and related entries,0.96 ± 0.036
18,K7ELL7 and related entries (UniProt P14314),0.992 ± 0.025
19,SCO2 (UniProt O43819),1 ± 0.022

row,Target,NP40-soluble protein abundance
1,PIK3CD (UniProt O00329),1.01 ± 0.036
2,STX6 (UniProt O43752),1.01 ± 0.028
3,UniProt O14974 and related entries,0.9946 ± 0.0094
4,K7ESQ0 and related entries (UniProt Q9H6Z4),0.995 ± 0.02
5,M0R0F0 and related entries (UniProt P46782),1.05 ± 0.019
6,K7ESQ2 and related entries (UniProt Q8NBT2),0.969 ± 0.082
7,UniProt O14965 and related entries,1 ± 0.014
8,ZZEF1 (UniProt O43149),0.998 ± 0.064
9,KPNA4 (UniProt O00629),1.04 ± 0.015
10,OPLAH (UniProt O14841),1 ± 0.024
11,UniProt O15015 and related entries,0.99314 ± 0.00064
12,UniProt O00628 and related entries,1.002 ± 0.01
13,UniProt O00221 and related entries,1 ± 0.035
14,SCD (UniProt O00767),0.975 ± 0.08
15,UniProt O00764 and related entries,1.02 ± 0.02
16,SPTLC2 (UniProt O15270),1 ± 0.033
17,EIF3F (UniProt O00303),1.03 ± 0.027
18,UniProt O43399 and related entries,0.995 ± 0.036

# Same assay, conditions: concentration: 0.5mM
row,Target,NP40-soluble protein abundance
1,NDUFAB1 (UniProt O14561),0.987 ± 0.034
2,UniProt O15085 and related entries,1.02 ± 0.029
3,M0QYT9 and related entries (UniProt Q14653),0.997 ± 0.029
4,UniProt O00592 and related entries,0.993 ± 0.018
5,K7EK00 and related entries (UniProt Q96ND0),1 ± 0.045
6,M0R2S1 and related entries (UniProt P62987),1.04 ± 0.02
7,M0QYZ2 and related entries (UniProt P53680),0.953 ± 0.12
8,TIMM44 (UniProt O43615),0.971 ± 0.042
9,NDUFS4 (UniProt O43181),0.978 ± 0.038
10,UniProt O43439-5,0.994 ± 0.021
11,TAF4 (UniProt O00268),1.02 ± 0.046
12,K7ER90 and related entries (UniProt O75821),1.05 ± 0.054
13,UniProt O43318-2|O43318,0.969 ± 0.018
14,M0R0Z3 and related entries (UniProt P35269),1.04 ± 0.07
15,UniProt O00139 and related entries,1.09 ± 0.034
16,UQCRQ (UniProt O14949),1.05 ± 0.061
17,UniProt O15400 and related entries,1 ± 0.035
18,K7ELL7 and related entries (UniProt P14314),1.03 ± 0.077
19,SCO2 (UniProt O43819),0.981 ± 0.025

row,Target,NP40-soluble protein abundance
1,PIK3CD (UniProt O00329),0.969 ± 0.039
2,STX6 (UniProt O43752),0.988 ± 0.018
3,UniProt O14974 and related entries,1.02 ± 0.047
4,K7ESQ0 and related entries (UniProt Q9H6Z4),0.991 ± 0.031
5,M0R0F0 and related entries (UniProt P46782),1.04 ± 0.081
6,K7ESQ2 and related entries (UniProt Q8NBT2),0.981 ± 0.056
7,UniProt O14965 and related entries,1.01 ± 0.032
8,ZZEF1 (UniProt O43149),0.971 ± 0.047
9,KPNA4 (UniProt O00629),1.05 ± 0.017
10,OPLAH (UniProt O14841),0.975 ± 0.044
11,UniProt O15015 and related entries,1.02 ± 0.031
12,UniProt O00628 and related entries,1.01 ± 0.037
13,UniProt O00221 and related entries,1.01 ± 0.0032
14,SCD (UniProt O00767),0.978 ± 0.098
15,UniProt O00764 and related entries,0.997 ± 0.034
16,SPTLC2 (UniProt O15270),1.02 ± 0.058
17,EIF3F (UniProt O00303),1.04 ± 0.012
18,UniProt O43399 and related entries,1.04 ± 0.12
